No constants are given. Whether binding was seen depends on the method and setting. Some binding calls cover weakened binding; strength is not graded here. Sequences can lack the tags named with a protein.
Columns and labels:
[1] = target: T1, Yah1-GST fusion protein (S. cerevisiae) (UniProt Q12184); assay: pull-down; competition: Yah1^GST (2.5 μM) with NIA (5 μM), with or without Isu1Sc or Isu1Ct (7.5 μM), then Yfh1 WT or DE/KK added (12.5 μM or increasing concentrations); glutathione resin; densitometry, amount without Yfh1 set as 100%; buffer PD; both purified
T1 sequence: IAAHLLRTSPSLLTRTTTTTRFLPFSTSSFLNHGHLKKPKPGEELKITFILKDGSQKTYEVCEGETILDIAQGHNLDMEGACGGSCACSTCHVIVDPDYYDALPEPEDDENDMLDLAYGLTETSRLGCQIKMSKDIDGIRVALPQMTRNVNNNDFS

Sequences of proteins named here, by UniProt entry; tags and fusion partners are left off. A change or cut given only in a name is not applied to a line headed by its entry.
UniProt P25374: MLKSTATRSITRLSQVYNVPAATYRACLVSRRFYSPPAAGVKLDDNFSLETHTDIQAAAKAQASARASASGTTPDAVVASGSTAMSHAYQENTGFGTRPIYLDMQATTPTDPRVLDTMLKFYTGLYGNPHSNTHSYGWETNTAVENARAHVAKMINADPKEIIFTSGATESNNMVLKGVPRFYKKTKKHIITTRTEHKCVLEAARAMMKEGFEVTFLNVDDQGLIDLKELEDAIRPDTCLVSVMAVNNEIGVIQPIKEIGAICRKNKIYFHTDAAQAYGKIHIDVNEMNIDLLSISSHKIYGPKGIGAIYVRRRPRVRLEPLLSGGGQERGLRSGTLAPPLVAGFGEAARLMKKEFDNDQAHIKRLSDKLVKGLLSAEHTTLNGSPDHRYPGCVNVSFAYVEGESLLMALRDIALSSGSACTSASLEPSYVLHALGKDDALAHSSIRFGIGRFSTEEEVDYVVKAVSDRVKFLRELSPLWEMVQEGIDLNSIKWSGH

[2] = target: T1, Yah1-GST fusion protein (S. cerevisiae); assay: pull-down; GST-tagged Yah1 bait (2.5 μM) incubated with NIA (5 μM or increasing) and/or Isu1 (7.5 μM) in buffer PD (40 mM Hepes–KOH pH 7.5, 5% glycerol, 100 mM KCl, 1 mM DTT, 10 mM MgCl2) 15 min at 25 °C; glutathione agarose 1 h at 4 °C; SDS-PAGE, InstantBlue, densitometry corrected for binding to GST; aerobic (Yah1 cluster oxidised); both purified
[3] = target: T1, Yah1-GST fusion protein (S. cerevisiae); assay: BLI; Yah1^GST immobilised on anti-GST biosensors; analytes NIA (10 μM) alone, Isu1 (10 μM) alone or both; buffer BLI (40 mM HEPES–KOH pH 7.5, 5% glycerol, 100 mM KCl, 1 mM DTT, 10 mM MgCl2, 0.05% Triton X-100); room temperature; aerobic (Yah1 cluster oxidised); fits with the 2:1 heterogenous ligand model; both purified
[4] = target: T1, Yah1-GST fusion protein (S. cerevisiae); assay: BLI; anaerobic chamber; Yah1^GST (WT or DD/KK) chemically reduced with 5 mM sodium dithionite (30 min, then desalted) and immobilised on anti-GST sensors; analytes NIA (10 μM), NIA with Isu1Sc (10 μM each) or Isu1Sc (10 μM); buffer BLI; both purified

Measured: binding

NIA–Isu1 complex with S. cerevisiae Isu1 (from UniProt P25374 37-497; Q6Q560 1-94; P0A6A8 1-78; Q03020 28-165)
binds: [1] | [2] | [3]

NIA complex (Nfs1–Isd11–ACPEc) (from UniProt P25374 37-497; Q6Q560 1-94; P0A6A8 1-78)
binds: all assays above
